PMC2696590
These are yes or no findings as the source states them, for the method shown. Some results given as binding are weak or reduced against the parent protein; the word gives no strength.

Target: neurotensin immobilised on the NT column
Assay: ligand-affinity column; NTS1-7m applied to a neurotensin (NT) column; elution tried with high concentration (e.g. 1 M) NaCl

For “NTS1-7m (A86L, I260A, F342A, F358A), MBP and TrxA-H10 fusion (from UniProt P20789 43-424) (receptor)”, the binding was “binds”.
